Literature values, collected in patent publication US10835719B2, “Drug releasing coatings for medical devices” (Lutonix, Inc., priority 2006, dated 2020).
For at least one compound, name, drawing or mass did not settle the structure.

Details: cited from earlier work

CCCCC(CC)COC(=O)CC(C(=O)OCC(CC)CCCC)S(=O)(=O)[O-].[Na+] (stereo not shown) [docusate sodium, dioctyl sodium sulfosuccinate]
HLB: 10
